# The supplement of paper PMC8728848
# The other results are listed elsewhere or left out.
# Legend:
# Test in all cases: glycan array binding signal (z-score within array); higher = stronger binding
# Details in all cases: glycan notation: IUPAC condensed, linker removed
# [1] = molecular target: Neu5Ac(a2-3)Gal(b1-3)[Fuc(a1-4)]GlcNAc
# In short: (§1)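 Glycan array data were curated from 3228 arrays in the Consortium for Functional Glycomics database and kept only where the protein sequence was available. Glycan names were converted to IUPAC-condensed notation, and columns mapping to the same glycan were averaged. The binding signal is a within-array Z-score, averaged across arrays of the same protein sequence at different concentrations or buffers and across linkers. Negative Z-scores can be read as non-binding.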
# [2] = molecular target: Neu5Ac(a2-3)Gal(b1-3)[Fuc(a1-4)]GlcNAc(b1-3)Gal(b1-3)[Fuc(a1-4)]GlcNAc
# In short: as §1
# [3] = molecular target: Neu5Ac(a2-3)Gal(b1-3)[Fuc(a1-4)]GlcNAc(b1-3)Gal(b1-4)[Fuc(a1-3)]GlcNAc
# In short: as §1
# [4] = molecular target: Neu5Ac(a2-3)Gal(b1-3)[GlcNAc(b1-6)]GalNAc
# In short: as §1
# [5] = molecular target: Neu5Ac(a2-3)Gal(b1-3)[Neu5Ac(a2-6)]GalNAc
# In short: as §1
# [6] = molecular target: Neu5Ac(a2-3)Gal(b1-3)[Neu5Ac(a2-6)]GlcNAc(b1-3)[Fuc(a1-3)[Gal(b1-4)]GlcNAc(b1-6)]Gal(b1-4)Glc
# In short: as §1
# [7] = molecular target: Neu5Ac(a2-3)Gal(b1-3)]Neu5Ac(a2-3)Gal(b1-4)]GlcNAc
# In short: as §1
# Neu5Ac(a2-3)Gal(b1-4)Glc = molecular target: Neu5Ac(a2-3)Gal(b1-4)Glc
# In short: as §1
# [8] = molecular target: Neu5Ac(a2-3)Gal(b1-4)GlcNAc
# In short: as §1
# [9] = molecular target: Neu5Ac(a2-3)Gal(b1-4)GlcNAc(b1-2)Man
# In short: as §1
# [10] = molecular target: Neu5Ac(a2-3)Gal(b1-4)GlcNAc(b1-2)Man(a1-3)[GlcNAc(b1-4)][Neu5Ac(a2-3)Gal(b1-4)GlcNAc(b1-2)Man(a1-6)]Man(b1-4)GlcNAc(b1-4)GlcNAc
# In short: as §1
# [11] = molecular target: Neu5Ac(a2-3)Gal(b1-4)GlcNAc(b1-2)Man(a1-3)[Neu5Ac(a2-3)Gal(b1-4)GlcNAc(b1-2)Man(a1-6)]Man(b1-4)GlcNAc(b1-4)GlcNAc
# In short: as §1
# [12] = molecular target: Neu5Ac(a2-3)Gal(b1-4)GlcNAc(b1-2)Man(a1-3)[Neu5Ac(a2-3)Gal(b1-4)GlcNAc(b1-2)Man(a1-6)]Man(b1-4)GlcNAc(b1-4)[Fuc(a1-6)]GlcNAc
# In short: as §1
# [13] = molecular target: Neu5Ac(a2-3)Gal(b1-4)GlcNAc(b1-2)Man(a1-3)[Neu5Ac(a2-6)Gal(b1-4)GlcNAc(b1-2)Man(a1-6)]Man(b1-4)GlcNAc(b1-4)GlcNAc
# In short: as §1
# [14] = molecular target: Neu5Ac(a2-3)Gal(b1-4)GlcNAc(b1-2)[Neu5Ac(a2-3)Gal(b1-4)GlcNAc(b1-4)]Man(a1-3)[GlcNAc(b1-4)][Neu5Ac(a2-3)Gal(b1-4)GlcNAc(b1-2)[Neu5Ac(a2-3)Gal(b1-4)GlcNAc(b1-6)]Man(a1-6)]Man(b1-4)GlcNAc(b1-4)GlcNAc
# In short: as §1
# [15] = molecular target: Neu5Ac(a2-3)Gal(b1-4)GlcNAc(b1-2)[Neu5Ac(a2-3)Gal(b1-4)GlcNAc(b1-4)]Man(a1-3)[GlcNAc(b1-4)][Neu5Ac(a2-3)Gal(b1-4)GlcNAc(b1-4)Man(a1-6)]Man(b1-4)GlcNAc(b1-4)GlcNAc
# In short: as §1
# [16] = molecular target: Neu5Ac(a2-3)Gal(b1-4)GlcNAc(b1-2)[Neu5Ac(a2-3)Gal(b1-4)GlcNAc(b1-6)]Man(a1-6)[Neu5Ac(a2-3)Gal(b1-4)GlcNAc(b1-2)Man(a1-3)]Man(b1-4)GlcNAc(b1-4)GlcNAc
# In short: as §1
# [17] = molecular target: Neu5Ac(a2-3)Gal(b1-4)GlcNAc(b1-2)[Neu5Ac(a2-3)Gal(b1-4)GlcNAc(b1-6)]Man(a1-6)[Neu5Ac(a2-3)Gal(b1-4)GlcNAc(b1-2)Man(a1-3)][GlcNAc(b1-4)]Man(b1-4)GlcNAc(b1-4)GlcNAc
# In short: as §1
# [18] = molecular target: Neu5Ac(a2-3)Gal(b1-4)GlcNAc(b1-3)Gal
# In short: as §1
# [19] = molecular target: Neu5Ac(a2-3)Gal(b1-4)GlcNAc(b1-3)Gal(b1-3)GlcNAc
# In short: as §1
# [20] = molecular target: Neu5Ac(a2-3)Gal(b1-4)GlcNAc(b1-3)Gal(b1-4)GlcNAc
# In short: as §1
# [21] = molecular target: Neu5Ac(a2-3)Gal(b1-4)GlcNAc(b1-3)Gal(b1-4)GlcNAc(b1-2)Man(a1-3)[Neu5Ac(a2-3)Gal(b1-4)GlcNAc(b1-3)Gal(b1-4)GlcNAc(b1-2)Man(a1-6)]Man(b1-4)GlcNAc(b1-4)GlcNAc
# In short: as §1
# [22] = molecular target: Neu5Ac(a2-3)Gal(b1-4)GlcNAc(b1-3)Gal(b1-4)GlcNAc(b1-3)Gal(b1-4)GlcNAc
# In short: as §1
# [23] = molecular target: Neu5Ac(a2-3)Gal(b1-4)GlcNAc(b1-3)Gal(b1-4)GlcNAc(b1-3)Gal(b1-4)GlcNAc(b1-2)Man(a1-3)[Neu5Ac(a2-3)Gal(b1-4)GlcNAc(b1-3)Gal(b1-4)GlcNAc(b1-3)Gal(b1-4)GlcNAc(b1-2)Man(a1-6)]GalNAc
# In short: as §1
# [24] = molecular target: Neu5Ac(a2-3)Gal(b1-4)GlcNAc(b1-3)Gal(b1-4)GlcNAc(b1-3)GalNAc
# In short: as §1
# [25] = molecular target: Neu5Ac(a2-3)Gal(b1-4)GlcNAc(b1-3)Gal(b1-4)GlcNAc(b1-3)[Neu5Ac(a2-3)Gal(b1-4)GlcNAc(b1-3)Gal(b1-4)GlcNAc(b1-6)]GalNAc
# In short: as §1
# [26] = molecular target: Neu5Ac(a2-3)Gal(b1-4)GlcNAc(b1-3)Gal(b1-4)GlcNAc(b1-6)[Gal(b1-3)]GalNAc
# In short: as §1
# [27] = molecular target: Neu5Ac(a2-3)Gal(b1-4)GlcNAc(b1-3)Gal(b1-4)[Fuc(a1-3)]GlcNAc
# In short: as §1
# [28] = molecular target: Neu5Ac(a2-3)Gal(b1-4)GlcNAc(b1-3)GalNAc
# In short: as §1
# [29] = molecular target: Neu5Ac(a2-3)Gal(b1-4)GlcNAc(b1-3)[Neu5Ac(a2-3)Gal(b1-4)GlcNAc(b1-6)]GalNAc
# In short: as §1
# [30] = molecular target: Neu5Ac(a2-3)Gal(b1-4)GlcNAc(b1-6)GalNAc
# In short: as §1
# [31] = molecular target: Neu5Ac(a2-3)Gal(b1-4)GlcNAc(b1-6)[Gal(b1-3)]GalNAc
# In short: as §1
# [32] = molecular target: Neu5Ac(a2-3)Gal(b1-4)GlcNAc(b1-6)[Neu5Ac(a2-3)Gal(b1-3)]GalNAc
# In short: as §1
# [33] = molecular target: Neu5Ac(a2-3)Gal(b1-4)GlcNAc6S
# In short: as §1
# [34] = molecular target: Neu5Ac(a2-3)Gal(b1-4)[Fuc(a1-3)]GlcNAc
# In short: as §1
# [35] = molecular target: Neu5Ac(a2-3)Gal(b1-4)[Fuc(a1-3)]GlcNAc(b1-2)Man
# In short: as §1
# [36] = molecular target: Neu5Ac(a2-3)Gal(b1-4)[Fuc(a1-3)]GlcNAc(b1-3)Gal
# In short: as §1
# [37] = molecular target: Neu5Ac(a2-3)Gal(b1-4)[Fuc(a1-3)]GlcNAc(b1-3)Gal(b1-4)GlcNAc
# In short: as §1
# [38] = molecular target: Neu5Ac(a2-3)Gal(b1-4)[Fuc(a1-3)]GlcNAc(b1-3)Gal(b1-4)[Fuc(a1-3)]GlcNAc(b1-3)Gal(b1-4)[Fuc(a1-3)]GlcNAc
# In short: as §1
# [39] = molecular target: Neu5Ac(a2-3)Gal(b1-4)[Fuc(a1-3)]GlcNAc(b1-3)GalNAc
# In short: as §1
# [40] = molecular target: Neu5Ac(a2-3)Gal(b1-4)[Fuc(a1-3)]GlcNAc(b1-6)[Gal(b1-3)]GalNAc
# In short: as §1
# [41] = molecular target: Neu5Ac(a2-3)Gal(b1-4)[Fuc(a1-3)]GlcNAc(b1-6)[Neu5Ac(a2-3)Gal(b1-3)]GalNAc
# In short: as §1
# [42] = molecular target: Neu5Ac(a2-3)Gal(b1-4)[Fuc(a1-3)]GlcNAc6S
# In short: as §1
# [43] = molecular target: Neu5Ac(a2-3)Gal6S(b1-4)GlcNAc
# In short: as §1
# [44] = molecular target: Neu5Ac(a2-3)Gal6S(b1-4)[Fuc(a1-3)]GlcNAc
# In short: as §1
binder,measurement,setting,value
Clone646PsrP (Streptococcus pneumoniae) (protein) MDHHHHHHHHASENLYFQGAPAINASLNIAKSETKVYTGEGVDSVYRVPIYYKLKVTNDGSKLTFTYTVTYVNPKTNDLGNISSMRPGYSIYNSGTSTQTMLTLGSDLGKPSGVKNYITDKNGRQVLSYNTSTMTTQGSGYTWGNGAQMNGFFAKKGYGLTSSWTVPITGTDTSFTFTPYAARTDRIGINYFNGGGKVVESSTTSQSLSQSKSLSVSAS,glycan array binding signal (z-score),[1],1.13
same,glycan array binding signal (z-score),[2],-0.452
same,glycan array binding signal (z-score),[3],-0.482
same,glycan array binding signal (z-score),[4],-0.453
same,glycan array binding signal (z-score),[5],-0.254
same,glycan array binding signal (z-score),[6],-0.878
same,glycan array binding signal (z-score),[7],1.22
same,glycan array binding signal (z-score),Neu5Ac(a2-3)Gal(b1-4)Glc,1.05
same,glycan array binding signal (z-score),[8],0.372
same,glycan array binding signal (z-score),[9],2.89
same,glycan array binding signal (z-score),[10],-0.995
same,glycan array binding signal (z-score),[11],-0.947
same,glycan array binding signal (z-score),[12],-0.778
same,glycan array binding signal (z-score),[13],-0.963
same,glycan array binding signal (z-score),[14],-0.987
same,glycan array binding signal (z-score),[15],-0.74
same,glycan array binding signal (z-score),[16],-0.679
same,glycan array binding signal (z-score),[17],-0.951
same,glycan array binding signal (z-score),[18],-0.909
same,glycan array binding signal (z-score),[19],-0.942
same,glycan array binding signal (z-score),[20],0.751
same,glycan array binding signal (z-score),[21],-0.824
same,glycan array binding signal (z-score),[22],-0.683
same,glycan array binding signal (z-score),[23],-0.067
same,glycan array binding signal (z-score),[24],-0.519
same,glycan array binding signal (z-score),[25],-0.501
same,glycan array binding signal (z-score),[26],-0.355
same,glycan array binding signal (z-score),[27],-0.61
same,glycan array binding signal (z-score),[28],-0.781
same,glycan array binding signal (z-score),[29],-0.321
same,glycan array binding signal (z-score),[30],-0.512
same,glycan array binding signal (z-score),[31],-0.717
same,glycan array binding signal (z-score),[32],-0.92
same,glycan array binding signal (z-score),[33],-0.446
same,glycan array binding signal (z-score),[34],-0.772
same,glycan array binding signal (z-score),[35],-0.265
same,glycan array binding signal (z-score),[36],-1
same,glycan array binding signal (z-score),[37],-0.71
same,glycan array binding signal (z-score),[38],-0.774
same,glycan array binding signal (z-score),[39],-0.406
same,glycan array binding signal (z-score),[40],-0.803
same,glycan array binding signal (z-score),[41],0.021
same,glycan array binding signal (z-score),[42],0.101
same,glycan array binding signal (z-score),[43],-0.579
same,glycan array binding signal (z-score),[44],-0.747

# 2 records picked at random from those above:
binder,measurement,setting,value
Clone646PsrP (Streptococcus pneumoniae) (protein) MDHHHHHHHHASENLYFQGAPAINASLNIAKSETKVYTGEGVDSVYRVPIYYKLKVTNDGSKLTFTYTVTYVNPKTNDLGNISSMRPGYSIYNSGTSTQTMLTLGSDLGKPSGVKNYITDKNGRQVLSYNTSTMTTQGSGYTWGNGAQMNGFFAKKGYGLTSSWTVPITGTDTSFTFTPYAARTDRIGINYFNGGGKVVESSTTSQSLSQSKSLSVSAS,glycan array binding signal (z-score),[21],-0.824
same,glycan array binding signal (z-score),[24],-0.519
